# From paper doi:10.1101/2021.11.09.467869 (bioRxiv, 2021)
# These are yes or no findings as the source states them, for the method shown. Some binding calls cover weakened binding; strength is not graded here.
# Target: RBA1 (residues 1-363) (Arabidopsis (accession Ag-0)) (UniProt F4HT77)
# Assay: SEC + other: negative-staining EM
binder,measurement,value
"RBA1 (residues 1-363) (protein, UniProt F4HT77 1-363) MTSVSPRYRNVPVPKVFLSFRGEEIRHGFISHLADALERYGIMFIIDKDEQRGNDLTSLLLRIKESKVALVIFSSRFAESRFCMDEIVKMKECVDERKLLVIPIFYKVRARDVSGRTGDFGKKFWALAQKSRGCQIKEWMEALECISNKMGLSLGDGRSEADFIKEIVKEVERVLATFTSEDTEDHHCQTVKLLKGLVVGCLAHQELPLVLVFTQVYYYVKFSIFFIEEIFSSCFRKGFVLKPCKEDLQINSISIPGIDLENFKNMMQQAMYELNQMLLQSLGNIDPHRDVAFENQPQDQPDSPIALPEERRVALEATKFCGHAAYWWNQTKTTRARIGKVLIHFWEKLKKKFKDTYDRTVRI",binding,binds
